Measurements reported in PubChem BioAssay AID1259405 (NCATS, 2018)

- Assay: 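Silenced genes that increase secreted GFP made by CHO cells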 (primary screen)
- Cells: Chinese hamster CHO-K1 ovary cells with stable secreted eGFP expression
- Reagent: single siRNA against mouse genes, 0.8 pmol siRNA per well (2 µl of 400 nM stock)
- Timing: 3 days
- Measurement: 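Percent of the per-plate non-targeting control median for intracellular GFP per well by laser scanning cytometry and for cell viability by ATP luminescence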
- Scale: GFP, % of control: higher = more GFP per well, higher productivity; viability (ATP), % of control: higher = more viable cells (more ATP)
- Hit rule: 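Called active when intracellular GFP, relative to negative control, is at or above 120%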
In all, the deposit lists about 50,000 reagents; this is an unselected part. About 4,000 of them (8%) count as active. 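Mouse siRNA library applied to hamster cells; one well for each siRNA.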 The numbers tell different reagents against one gene apart. No sequences are given here.

Gene | siRNA no. | GFP, % of control | viability (ATP), % of control | Call
Tsr3 | 1 | 98.3 | 113 | inactive
Tsr3 | 2 | 57.9 | 104 | inactive
Tsr3 | 3 | 136 | 121 | active
Tmem184b | 1 | 18 | 12.2 | inactive
Tmem184b | 2 | 65.3 | 72.8 | inactive
Tmem184b | 3 | 77.5 | 91.1 | inactive
Strc | 1 | 85.1 | 82.2 | inactive
Strc | 2 | 72.3 | 90.4 | inactive
Strc | 3 | 79.1 | 65.4 | inactive
Or4f14 | 1 | 86.7 | 63.8 | inactive
Or4f14 | 2 | 79.9 | 73.8 | inactive
Or4f14 | 3 | 56 | 76.4 | inactive
Nagk | 1 | 71 | 88.5 | inactive
Nagk | 2 | 48.1 | 44.3 | inactive
Hoxc5 | 1 | 79.1 | 78.6 | inactive
Hoxc5 | 2 | 78.7 | 64.7 | inactive
Hoxc5 | 3 | 91.5 | 104 | inactive
Elmod2 | 1 | 61.5 | 49.7 | inactive
Elmod2 | 2 | 60.8 | 61.2 | inactive
Elmod2 | 3 | 87.6 | 85 | inactive
Usp8 | 1 | 95.7 | 100 | inactive
Usp8 | 2 | 44.2 | 58.4 | inactive
Usp8 | 3 | 55.3 | 55.7 | inactive
Ifi27 | 1 | 123 | 77.3 | active
Ifi27 | 2 | 103 | 79.1 | inactive
Ifi27 | 3 | 118 | 128 | inactive
Rpl15 | 1 | 34.6 | 25.9 | inactive
Rpl15 | 2 | 34.9 | 57.5 | inactive
Rpl15 | 3 | 85.4 | 95.1 | inactive
Muc6 | 1 | 50.1 | 37 | inactive
Muc6 | 2 | 57.8 | 73 | inactive
Muc6 | 3 | 85.3 | 63.8 | inactive
Frmpd3 | 1 | 75.6 | 46.4 | inactive
Frmpd3 | 2 | 69.1 | 75.2 | inactive
Frmpd3 | 3 | 79.6 | 109 | inactive
